B1: DltD protein (protein, UniProt Q2FZW3 1-391)
chain: MKLKPFLPILISGAVFIVFLLLPASWFTGLVNEKTVEDNRTSLTDQVLKGTLIQDKLYESNKYYPIYGSSELGKDDPFNPAIALNKHNANKKAFLLGAGGSTDLINAVELASQYDKLKGKKLTFIISPQWFTNHGLTNQNFDARMSQTQINQMFQQKNMSTELKRRYAQRLLQFPHVHNKEYLKSYAKNPKETKDSYISGFKENQLIKIEAIKSLFAMDKSPLEHVKPATKPDASWDEMKQKAVEIGKADTTSNKFGIRDQYWKLIQESKRKVRRDYEFNVNSPEFQDLELLVKTMRAAGADVQYVSIPSNGVWYDHIGIDKERRQAVYKKIHSTVVDNGGKIYDMTDKDYEKYVISDAVHIGWKGWVYMDEQIAKHMKGEPQPEVDKPKN
B2: cell wall amidase LytH (enzyme, UniProt O32421 41-291)
chain: EDSGNITITENAELRTGPNAAYPVIYKVEKGDHFKKIGKVGKWIEVEDTSSNEKGWIAGWHTNLDIVADNTKEKNPLQGKTIVLDPGHGGSDQGASSNTKYKSLEKDYTLKTAKELQRTLEKEGATVKMTRTDDTYVSLENRDIKGDAYLSIHNDALESSNANGMTVYWYHDNQRALADTLDATIQKKGLLSNRGSRQENYQVLRQTKVPAVLLELGYISNPTDETMIKDQLHRQILEQAIVDGLKIYFSA

The chains behind the UniProt entries cited, without tags or fusion partners. Where a name states a change or a piece, a line headed by the entry shows the natural chain unless it says otherwise.
UniProt P0A068: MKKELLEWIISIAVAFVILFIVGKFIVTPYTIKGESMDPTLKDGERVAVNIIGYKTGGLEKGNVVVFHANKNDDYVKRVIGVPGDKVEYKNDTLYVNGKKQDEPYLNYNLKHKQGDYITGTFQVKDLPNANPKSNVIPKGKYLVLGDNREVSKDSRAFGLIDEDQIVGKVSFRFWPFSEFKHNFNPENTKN

These are yes or no findings as the source states them, for the method shown. Binding seen in cells or lysates may run through a third protein. A yes stands for co-enrichment or nearness to the bait. Other partners may have been found. Sequences can lack the tags named with a protein.

In this test the target is T1, MspA tagged at the C-terminus with mCherry (S. aureus) (UniProt Q2FVZ6).
T1 sequence: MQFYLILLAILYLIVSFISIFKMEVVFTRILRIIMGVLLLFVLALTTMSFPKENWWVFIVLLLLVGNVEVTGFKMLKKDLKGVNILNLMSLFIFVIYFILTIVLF
The test is described as follows: affinity purification with mass spectrometry; MspA-mCherry as bait, captured on ChromoTek RFP-Trap Magnetic Agarose beads from S. aureus SH1000 lysate in co-IP buffer (50-mM Tris/Cl, pH 7.5, 150-mM NaCl, 20-mM MgCl, 0.2% Tween 20), 4°C overnight; eluate analysed by liquid chromatography-mass spectrometry against the negative control SH1000 pCN34; biological triplicate.
Consider “SpsB, type I signal peptidase (endogenous) (from UniProt P0A068) (enzyme)”, for which the binding result was “binds”. Next, TagH (S. aureus (endogenous in SH1000)): “binds”; “FmtA (S. aureus (endogenous in SH1000)) (enzyme)”: “binds”; B1: “binds”. Next, B2: “binds”.

(Values after PMC11323550.)
